Results are given in words; binding and its absence hold for the method and conditions named. In cells and extracts the contact can be indirect. A yes stands for co-enrichment or nearness to the bait. Other partners may have been found. Tags and fused reporters may be left off the sequences shown.
B1: Alpha-internexin (protein, UniProt P23565 1-505)
chain: MSFGSEHYLCSASSYRKVFGDGSRLSARLSGPGASGSFRSQSLSRSNVASTAACSSASSLGLGLAYRRLPASDGLDLSQAAARTNEYKIIRTNEKEQLQGLNDRFAVFIEKVHQLETQNRALEAELAALRQRHAEPSRVGELFQRELRELRAQLEEASSARAQALLERDGLAEEVQRLRARCEEESRGREGAERALKAQQRDVDGATLARLDLEKKVESLLDELAFVRQVHDEEVAELLATLQASSQAAAEVDVAVAKPDLTSALREIRAQYESLAAKNLQSAEEWYKSKFANLNEQAARSTEAIRASREEIHEYRRQLQARTIEIEGLRGANESLERQILELEERHSAEVAGYQDSIGQLESDLRNTKSEMARHLREYQDLLNVKMALDIEIAAYRKLLEGEETRFSTSGLSISGLNPLPNPSYLLPPRILSSTTSKVSSAGLSLKKEEEEEEEEEEGASKEVTKKTSKVGESFEETLEETVVSTKKTEKSTIEEITTSSSQKM
B2: Junction plakoglobin (protein, UniProt Q6P0K8 1-745)
chain: MEVMNLIEQPIKVTEWQQTYTYDSGIHSGVNTCVPSVSSKGLLDEDDTCGRQYTLKKTTTYTQGVPQSQGDLEYQMSTTARAKRVREAMCPGVSGEDSSLLLATQVEGQTTNLQRLAEPSQLLKSAIVHLINYQDDAELATRALPELTKLLNDEDPVVVTKAAMIVNQLSKKEASRRALMGSPQLVAAVVRTMQNTSDLDTARCTTSILHNLSHHREGLLAIFKSGGIPALVRMLSSPVESVLFYAITTLHNLLLYQEGAKMAVRLADGLQKMVPLLNKNNPKFLAITTDCLQLLAYGNQESKLIILANGGPQGLVQIMRNYSYEKLLWTTSRVLKVLSVCPSNKPAIVEAGGMQALGKHLTSNSPRLVQNCLWTLRNLSDVATKQEGLENVLKILVNQLSVDDVNVLTCATGTLSNLTCNNSKNKTLVTQNSGVEALIHAILRAGDKDDITEPAVCALRHLTSRHPEAEMAQNSVRLNYGIPAIVKLLNQPNQWPLVKATIGLIRNLALCPANHAPLQEAAVIPRLVQLLVKAHQDAQRHVAAGTQQPYTDGVRMEEIVEGCTGALHILARDPMNRMEIFRLNTIPLFVQLLYSSVENIQRVAAGVLCELAQDKEAADAIDAEGASAPLMELLHSRNEGTATYAAAVLFRISEDKNPDYRKRVSVELTNSLFKHDPAAWEAAQSMIPINEPYADDMDATYRPMYSSDVPLDPLDMHMDMDGDYPMDTYSDGLRPPYPAADHMLA
B3: EF-hand domain-containing protein D2 (protein, UniProt Q4FZY0 1-239)
chain: MATDELASKLSRRLQMEDEGGEATEQPGLNGAAAAAAEAPDETAQALGSADDELSAKLLRRADLNQGIGEPQSPSRRVFNPYTEFKEFSRKQIKDMEKMFKQYDAGKDGFIDLMELKLMMEKLGAPQTHLGLKSMIQEVDEDFDSKLSFREFLLIFRKAAAGELQEDSGLHVLARLSEIDVSTEGVKGAKNFFEAKVQAINVSSRFEEEIKAEQEERKKQAEEVKQRKAAFKELQSTFK
B4: mRNA-decapping enzyme 1A (protein, UniProt D4AE80 1-601)
chain: MALSCSPVRPRPRGSAWRSKMELLSRAEQEMSLAALKQHDPYITSIADLTGQVALYTFCPKANQWEKTDIEGTLFVYRRSASPYHGFTIVNRLNMHNLVEPVNKDLEFQLHEPFLLYRNASLSIYSIWFYDKNDCHRIAKLMADVVEEEARRAQQAARDKQSPSQANGCSDQRPIDILEMLSRAKDEYERNQMGGSNISSPGLQPSSQLSNLGSTETLEETPSGSQDKSAPSGHKHLTVEELFGTSLPKEQPAPMGLESEDTDKLLGDAPQKEPSSFLPFPFEQSGGAPQAENLGVHSVTHHTVQPEVSAPVLITPASIAQSGDKHPPSYTLPLSPVLSPTLPAEAPTTQVPHLPRNSTMMQAVRTTPRQKSPLLNQPVPELSHSSLIASQSPFRAPVSLANTAGTAIPSSDLLQKLRLTPQHDQIQAQPLGKGAMAPNFSSAAGQLATPESFIEPSSKTAAARAAVAASLSNMVLAPTLQSMQQNQDPEVFAQPKVLPSAIPIAGPPLVTATTTAVSSVLLSPSVFQQTVPRSADLERKASCPSPLTIGAENQRKPSIILSRSQLQDTLIHLIKNDSGFLSTLHEVYLQVLTKSKDNHSL
B5: Thy-1 membrane glycoprotein (protein, UniProt P01830 20-130)
chain: QRVISLTACLVNQNLRLDCRHENNTNLPIQHEFSLTREKKKHVLSGTLGVPEHTYRSRVNLFSDRFIKVLTLANFTTKDEGDYMCELRVSGQNPTSSNKTINVIRDKLVKC
B6: Ras-related protein Rab-3A (protein, UniProt P63012 1-220)
chain: MASATDSRYGQKESSDQNFDYMFKILIIGNSSVGKTSFLFRYADDSFTPAFVSTVGIDFKVKTIYRNDKRIKLQIWDTAGQERYRTITTAYYRGAMGFILMYDITNEESFNAVQDWSTQIKTYSWDNAQVLLVGNKCDMEDERVVSSERGRQLADHLGFEFFEASAKDNINVKQTFERLVDVICEKMSESLDTADPAVTGAKQGPQLTDQQAPPHQDCAC
B7: Coronin (protein, UniProt F1LMV9 1-480)
chain: MTVTKMSWRPQYRSSKFRNVYGKVANREHCFDGIPITKNVHDNHFCAVNARFLAIVTESAGGGSFLVIPLEQTGRIEPNYPKVCGHQGNVLDIKWNPFIDNIIASCSEDTSVRIWEIPEGGLKRNMTEALLELHGHSRRVGLVEWHPTTNNILFSAGYDYKVLIWNLDIGEPVKMIDCHTDVILCMSFNTDGSLLTTTCKDKKLRVIEPRSGRVLQEANCKNHRVNRVVFLGNMKRLLTTGVSRWNTRQIALWDQEDLSMPMIEEEIDGLSGLLFPFYDADTHMLYLAGKGDGNIRYYEISTEKPYLSYLMEFRSPAPQKGLGVMPKHGLDVSACEVFRFYKLVTLKGLIEPISMIVPRRSDSYQEDIYPMTPGTEPALTPDEWLGGVNRDPVLMSLKEGYKKSSKVVFKAPIREKKSVVVNGIDLLENVPPRTENELLRMFFRQQDEIRRLKEELAQKDIRLRQLQLELKNLRNNPKNC
B8: Voltage-dependent anion-selective channel protein 2 (protein, UniProt P81155 1-295)
chain: MAECCVPVCQRPICIPPPYADLGKAARDIFNKGFGFGLVKLDVKTKSCSGVEFSTSGSSNTDTGKVSGTLETKYKWCEYGLTFTEKWNTDNTLGTEIAIEDQICQGLKLTFDTTFSPNTGKKSGKIKSAYKRECINLGCDVDFDFAGPAIHGSAVFGYEGWLAGYQMTFDSAKSKLTRSNFAVGYRTGDFQLHTNVNNGTEFGGSIYQKVCEDFDTSVNLAWTSGTNCTRFGIAAKYQLDPTASISAKVNNSSLIGVGYTQTLRPGVKLTLSALVDGKSFNAGGHKLGLALELEA
B9: Drebrin (protein, UniProt Q07266 1-707)
chain: MAGVSFSGHRLELLAAYEEVIREESAADWALYTYEDGSDDLKLAASGEGGLQELSGHFENQKVMYGFCSVKDSQAALPKYVLINWVGEDVPDARKCACASHVAKVAEFFQGVDVIVNASSVEDIDAGAIGQRLSNGLARLSSPVLHRLRLREDENAEPVGTTYQKTDAAVEMKRINREQFWEQAKKEEELRKEEERKKALDARLRFEQERMEQERQEQEERERRYREREQQIEEHRRKQQSLEAEEAKRRLKDQSIFGDQRDEEEESQMKKSESEVEEAAAIIAQRPDNPREFFRQQERVASASGGSCDAPSPFNHRPGRPYCPFIKASDSGPSSSSSSSSSPPRTPFPYITCHRTPNLSSSLPCSHLDSHRRMAPTPIPTRSPSDSSTASTPITEQIERALDEVTSSQPPPPPPPPPPAQEAQESAPRLDGEEVCKEAKVAAAPQVWAGCAEEPPRAQEPPLLQSSPTEDLMCTESPEQAVLAASPEPDASVTSVADAHAADTIETTTATTATTIADNVTPAAASLIDLWPGNGEEASTPQAEPRVPTPPSGAEASLAEVPLLNEAAQEPLPPVGEGCANLLNFDELPEPPATFCDPEEEAEGEPLAASQVLTMPSALEEVDQVLEQELEPEPHLLTNGETTQKEGTQQASEGYFSQSQEEEFAQSEEPCAKAPPPVFYNKPPEIDITCWDADPVPEEEEGFEGGD

Target: Traf2-and NcK-interacting kinase (rat (endogenous in rat hippocampus))
Experiment: affinity purification with mass spectrometry; anti-TNIK immunoprecipitate from rat hippocampal lysate (control: normal mouse IgG), SDS-PAGE, silver stain, bands seen only in the TNIK Co-IP cut out, trypsin digest, LC-MS/MS, Mascot against UniProt Rattus norvegicus, score >=20

| Binder | binding |
| --- | --- |
| B1 | binds |
| B2 | binds |
| B3 | binds |
| B4 | binds |
| B5 | binds |
| B6 | binds |
| B7 | binds |
| B8 | binds |
| B9 | binds |

Reference: article PMC10826163
